Assay results published in PMC10042999.
These are yes or no findings as the source states them, for the method shown. In cells and extracts the contact can be indirect. Some binding calls cover weakened binding; strength is not graded here.

The chains behind the UniProt entries cited, without tags or fusion partners. Residues count along the entry.
UniProt P38646, residues 47-679: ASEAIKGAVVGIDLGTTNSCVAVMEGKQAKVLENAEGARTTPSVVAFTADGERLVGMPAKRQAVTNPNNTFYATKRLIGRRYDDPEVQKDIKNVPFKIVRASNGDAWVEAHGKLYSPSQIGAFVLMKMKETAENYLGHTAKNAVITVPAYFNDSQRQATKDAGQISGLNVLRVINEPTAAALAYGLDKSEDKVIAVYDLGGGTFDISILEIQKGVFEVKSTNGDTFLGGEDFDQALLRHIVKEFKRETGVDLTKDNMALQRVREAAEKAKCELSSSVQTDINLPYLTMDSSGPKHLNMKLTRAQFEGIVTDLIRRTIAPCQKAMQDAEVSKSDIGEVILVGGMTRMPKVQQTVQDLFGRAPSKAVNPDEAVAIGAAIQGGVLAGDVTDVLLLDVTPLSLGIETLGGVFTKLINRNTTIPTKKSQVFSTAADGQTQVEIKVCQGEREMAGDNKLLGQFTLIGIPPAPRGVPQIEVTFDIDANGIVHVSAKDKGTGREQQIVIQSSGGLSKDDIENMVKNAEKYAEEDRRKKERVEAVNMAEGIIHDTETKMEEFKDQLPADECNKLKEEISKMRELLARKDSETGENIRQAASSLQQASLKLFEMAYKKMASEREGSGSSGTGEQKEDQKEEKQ
UniProt P38647, residues 47-679: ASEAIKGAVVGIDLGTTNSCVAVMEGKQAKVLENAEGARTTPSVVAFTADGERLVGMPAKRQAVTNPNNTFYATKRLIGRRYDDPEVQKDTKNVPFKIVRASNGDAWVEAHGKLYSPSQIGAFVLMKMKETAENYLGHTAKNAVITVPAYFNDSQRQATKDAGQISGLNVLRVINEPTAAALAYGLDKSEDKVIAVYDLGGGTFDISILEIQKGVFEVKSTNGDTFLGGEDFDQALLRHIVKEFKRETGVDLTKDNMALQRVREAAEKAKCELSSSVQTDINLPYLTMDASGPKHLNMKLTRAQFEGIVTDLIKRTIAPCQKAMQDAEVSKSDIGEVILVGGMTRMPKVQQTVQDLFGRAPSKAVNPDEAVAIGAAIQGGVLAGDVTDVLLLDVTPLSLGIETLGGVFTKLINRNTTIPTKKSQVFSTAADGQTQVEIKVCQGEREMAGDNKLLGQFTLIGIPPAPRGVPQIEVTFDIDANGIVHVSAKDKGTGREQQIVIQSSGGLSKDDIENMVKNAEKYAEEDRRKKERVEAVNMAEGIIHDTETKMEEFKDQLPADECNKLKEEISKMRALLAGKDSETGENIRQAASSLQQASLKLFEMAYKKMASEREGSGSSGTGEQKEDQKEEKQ
UniProt P11881: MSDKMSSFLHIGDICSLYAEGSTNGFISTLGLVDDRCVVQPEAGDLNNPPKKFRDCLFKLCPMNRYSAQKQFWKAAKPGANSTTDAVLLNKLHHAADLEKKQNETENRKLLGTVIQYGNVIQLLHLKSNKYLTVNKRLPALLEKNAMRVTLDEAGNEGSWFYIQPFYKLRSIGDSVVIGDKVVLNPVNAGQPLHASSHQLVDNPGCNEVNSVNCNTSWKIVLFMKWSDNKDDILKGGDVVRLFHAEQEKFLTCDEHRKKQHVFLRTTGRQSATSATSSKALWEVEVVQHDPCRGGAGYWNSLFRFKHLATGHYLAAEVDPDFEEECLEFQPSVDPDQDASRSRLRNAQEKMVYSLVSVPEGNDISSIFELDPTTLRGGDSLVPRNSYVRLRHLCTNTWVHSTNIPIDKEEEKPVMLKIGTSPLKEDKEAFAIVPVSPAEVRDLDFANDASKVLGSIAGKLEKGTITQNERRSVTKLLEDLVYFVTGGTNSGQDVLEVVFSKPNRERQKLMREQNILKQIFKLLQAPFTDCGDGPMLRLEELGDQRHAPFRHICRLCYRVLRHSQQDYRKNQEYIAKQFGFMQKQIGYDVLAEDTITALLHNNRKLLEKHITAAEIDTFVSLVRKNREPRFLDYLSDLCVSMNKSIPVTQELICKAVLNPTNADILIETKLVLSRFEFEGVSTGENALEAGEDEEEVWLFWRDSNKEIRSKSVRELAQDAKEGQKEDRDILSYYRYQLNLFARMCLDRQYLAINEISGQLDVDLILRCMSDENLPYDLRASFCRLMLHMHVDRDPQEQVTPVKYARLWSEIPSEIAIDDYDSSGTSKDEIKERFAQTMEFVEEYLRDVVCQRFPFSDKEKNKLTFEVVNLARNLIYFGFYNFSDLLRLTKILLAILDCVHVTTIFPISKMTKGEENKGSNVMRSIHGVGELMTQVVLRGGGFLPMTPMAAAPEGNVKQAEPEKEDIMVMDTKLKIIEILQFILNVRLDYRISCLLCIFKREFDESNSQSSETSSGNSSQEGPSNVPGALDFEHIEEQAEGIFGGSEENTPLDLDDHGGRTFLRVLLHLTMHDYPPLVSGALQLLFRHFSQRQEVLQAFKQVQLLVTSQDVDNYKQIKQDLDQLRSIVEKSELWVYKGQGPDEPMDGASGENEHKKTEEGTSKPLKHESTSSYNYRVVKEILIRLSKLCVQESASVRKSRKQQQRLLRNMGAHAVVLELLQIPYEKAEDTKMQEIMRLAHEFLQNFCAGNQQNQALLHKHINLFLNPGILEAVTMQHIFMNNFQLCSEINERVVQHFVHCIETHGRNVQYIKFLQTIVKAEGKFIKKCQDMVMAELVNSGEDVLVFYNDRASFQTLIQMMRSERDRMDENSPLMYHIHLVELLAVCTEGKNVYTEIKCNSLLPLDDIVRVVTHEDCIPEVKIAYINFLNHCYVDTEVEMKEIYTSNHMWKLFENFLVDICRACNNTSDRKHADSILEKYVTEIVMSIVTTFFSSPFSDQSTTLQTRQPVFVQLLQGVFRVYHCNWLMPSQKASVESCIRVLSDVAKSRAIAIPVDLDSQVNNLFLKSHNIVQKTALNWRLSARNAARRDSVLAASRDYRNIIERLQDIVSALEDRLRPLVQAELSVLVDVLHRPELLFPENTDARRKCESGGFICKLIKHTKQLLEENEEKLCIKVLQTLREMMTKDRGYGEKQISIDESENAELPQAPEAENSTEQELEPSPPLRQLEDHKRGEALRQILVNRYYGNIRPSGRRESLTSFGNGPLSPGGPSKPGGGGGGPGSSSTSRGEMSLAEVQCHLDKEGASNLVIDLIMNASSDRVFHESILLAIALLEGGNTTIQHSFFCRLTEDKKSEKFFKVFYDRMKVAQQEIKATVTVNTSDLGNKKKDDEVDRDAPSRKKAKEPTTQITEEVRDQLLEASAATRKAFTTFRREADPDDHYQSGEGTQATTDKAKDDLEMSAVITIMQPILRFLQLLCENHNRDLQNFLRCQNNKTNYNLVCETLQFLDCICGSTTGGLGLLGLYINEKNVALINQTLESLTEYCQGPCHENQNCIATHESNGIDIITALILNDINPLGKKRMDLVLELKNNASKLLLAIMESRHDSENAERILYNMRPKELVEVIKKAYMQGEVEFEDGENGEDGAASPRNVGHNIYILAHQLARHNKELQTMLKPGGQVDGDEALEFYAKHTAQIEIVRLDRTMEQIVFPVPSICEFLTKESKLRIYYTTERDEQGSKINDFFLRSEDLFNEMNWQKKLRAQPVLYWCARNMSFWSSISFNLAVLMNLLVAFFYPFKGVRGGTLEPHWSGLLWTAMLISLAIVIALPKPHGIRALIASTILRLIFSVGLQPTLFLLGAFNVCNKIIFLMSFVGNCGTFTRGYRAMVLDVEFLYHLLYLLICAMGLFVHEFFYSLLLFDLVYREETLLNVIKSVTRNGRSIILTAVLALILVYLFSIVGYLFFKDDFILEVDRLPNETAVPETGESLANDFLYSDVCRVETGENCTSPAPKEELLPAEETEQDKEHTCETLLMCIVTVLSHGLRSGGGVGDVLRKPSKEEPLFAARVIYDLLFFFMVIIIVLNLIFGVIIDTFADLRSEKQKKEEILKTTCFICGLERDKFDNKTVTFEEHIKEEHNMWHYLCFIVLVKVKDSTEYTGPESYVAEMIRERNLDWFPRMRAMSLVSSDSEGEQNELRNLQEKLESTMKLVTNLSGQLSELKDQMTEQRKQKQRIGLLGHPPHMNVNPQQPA

Legend:
[1] = molecular target: Human GRP75 with c-term hemagglutinin (HA) tag, wild type (human) (UniProt P38646); assay: co-IP; IP with HA antibody from AML12 cells overexpressing HA-tagged WT or phospho-mutant GRP75, either co-overexpressing PDK4-FLAG (Fig. 3g) or treated with 100 mM EtOH for 24 h (Fig. 4a); immunoblotting of endogenous IP3R1 and VDAC1
[2] = molecular target: glucose-regulated protein 75 (GRP75), endogenous mouse (mouse (endogenous in mouse liver, primary mouse hepatocytes and AML12 cells)) (UniProt P38647); assay: co-IP; IP with GRP75 antibody from liver lysates of control diet (CD) and EtOH diet (ED)-fed mice; lysis buffer 50 mM Tris, 150 mM NaCl, 1% Triton X-100, 1 mM EDTA, 10% glycerol; A/G plus agarose beads overnight at 4 °C; immunoblotting
[3] = molecular target: glucose-regulated protein 75 (GRP75), endogenous mouse (mouse (endogenous in mouse liver, primary mouse hepatocytes and AML12 cells)) (UniProt P38647); assay: proximity ligation; in situ PLA (Duolink) on fixed, permeabilised AML12 cells; endogenous proteins, PDK4-FLAG (FLAG antibody) or HA-tagged GRP75 WT/mutants (HA antibody) co-overexpressed with PDK4-FLAG; with or without 100 mM EtOH for 24 h
[4] = molecular target: Human GRP75 with c-term hemagglutinin (HA) tag, wild type (human) (UniProt P38646); assay: as above
[5] = molecular target: glucose-regulated protein 75 (GRP75), endogenous mouse (mouse (endogenous in mouse liver, primary mouse hepatocytes and AML12 cells)) (UniProt P38647); assay: proximity ligation; in situ PLA (Duolink) on fixed, permeabilised primary mouse hepatocytes (Pdk4+/+ and Pdk4-/-), with or without 100 mM EtOH for 24 h; endogenous proteins

Measured: binding

inositol-1-tri-phosphate receptor 1 (IP3R1), endogenous mouse (from UniProt P11881 1-2749)
binds: all assays above
